This assay addresses IκBα WT (UniProt P25963). Kind of assay: co-IP; Protein-G cross-linked HA antibody precipitates exogenous IκBα WT or ubiquitin-IκBα fusion from HEK293 lysates (1% Igepal CA-630 lysis buffer, 15 min on ice); Western blot for IKKβ, βTrCP or p65; for IKKβ and βTrCP cells pretreated or not with 20 µM MG132 for 1 h and stimulated with 10 ng/ml TNFα for 20 min. (A western blot detects proteins with antibodies after separation by electrophoresis.)

Sequences of proteins named here, by UniProt entry; tags and fusion partners are left off.
UniProt P25963: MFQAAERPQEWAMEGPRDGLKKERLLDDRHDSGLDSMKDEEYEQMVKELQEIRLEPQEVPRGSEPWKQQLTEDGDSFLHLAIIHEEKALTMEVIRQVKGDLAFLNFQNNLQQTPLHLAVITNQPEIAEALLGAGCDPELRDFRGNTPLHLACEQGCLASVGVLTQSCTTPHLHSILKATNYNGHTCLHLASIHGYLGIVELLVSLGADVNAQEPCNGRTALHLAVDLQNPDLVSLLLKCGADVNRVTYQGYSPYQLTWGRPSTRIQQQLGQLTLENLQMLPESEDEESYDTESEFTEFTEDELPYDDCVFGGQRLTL

No constants are given. Whether binding was seen depends on the method and setting. Binding seen in cells or lysates may run through a third protein. Some entries that bind do so weakly or less than the wild type.

In article PMC3192046 one finds binding data, which are given here for one molecule.

B1: IKKβ kinase (enzyme, UniProt O14920 1-756)
chain: MSWSPSLTTQTCGAWEMKERLGTGGFGNVIRWHNQETGEQIAIKQCRQELSPRNRERWCLEIQIMRRLTHPNVVAARDVPEGMQNLAPNDLPLLAMEYCQGGDLRKYLNQFENCCGLREGAILTLLSDIASALRYLHENRIIHRDLKPENIVLQQGEQRLIHKIIDLGYAKELDQGSLCTSFVGTLQYLAPELLEQQKYTVTVDYWSFGTLAFECITGFRPFLPNWQPVQWHSKVRQKSEVDIVVSEDLNGTVKFSSSLPYPNNLNSVLAERLEKWLQLMLMWHPRQRGTDPTYGPNGCFKALDDILNLKLVHILNMVTGTIHTYPVTEDESLQSLKARIQQDTGIPEEDQELLQEAGLALIPDKPATQCISDGKLNEGHTLDMDLVFLFDNSKITYETQISPRPQPESVSCILQEPKRNLAFFQLRKVWGQVWHSIQTLKEDCNRLQQGQRAAMMNLLRNNSCLSKMKNSMASMSQQLKAKLDFFKTSIQIDLEKYSEQTEFGITSDKLLLAWREMEQAVELCGRENEVKLLVERMMALQTDIVDLQRSPMGRKQGGTLDDLEEQARELYRRLREKPRDQRTEGDSQEMVRLLLQAIQSFEKKVRVIYTQLSKTVVCKQKALELLPKVEEVVSLMNEDEKTVVRLQEKRQKELWNLLKIACSKVRGPVSGSPDSMNASRLSQPGQLMSQPSTASNSLPEPAKKSEELVAEAHNLCTLLENAIQDTVREQDQSFTALDWSWLQTEEEEHSCLEQAS
Turning to B1, the binding entry is given as “binds”.
